Cell viability data for 47 compounds are collected here from the supplement of paper PMC9744312.

Structures are written as SMILES. Counter-ions that a name gives are not always drawn. Some of the results follow. This is a noisy data set.

This assay deals with Peyronie's disease tunica albuginea primary fibroblasts. Briefly: cell viability (DRAQ5 nuclear stain) relative to TGF-beta1-only control; higher = more viable cells. To be noted: 10 µM; TGF-beta1 10 ng/mL; 72 h.
For the compound `S=P(N1CC1)(N1CC1)N1CC1` [Thiotepa], the cell viability is 84%.

Regarding `CCN1CCCC1CNC(=O)c1cc(S(=O)(=O)CC)c(N)cc1OC` (configuration not stated) [Amisulpride], the cell viability was determined as 60%.

As to `CC(C)(CO)C(O)C(=O)NCCCO` (racemic) [DL-Panthenol], the cell viability amounted to 87%.

As to `Nc1nc(N)nc(-c2cc(Cl)ccc2Cl)n1` [Irsogladine], the cell viability was determined as 94.6%.

Turning to `CNC(=O)c1ccccc1Sc1ccc2c(/C=C/c3ccccn3)n[nH]c2c1` [Axitinib], the cell viability was 84.7%.

Take `CC(CN1c2ccccc2Sc2ccccc21)N(C)C` (configuration not stated) [Promethazine HCl]: the cell viability was 81.7%.

For `NS(=O)(=O)c1cc2c(cc1C(F)(F)F)NC(Cc1ccccc1)NS2(=O)=O` (configuration not stated) [Bendroflumethiazide], the cell viability worked out at 86.1%.

With `[OH][Al]([OH])[OH]` [Aluminium hydroxide], the cell viability turned out to be 95.4%.

`O=C(c1ccc(OCCN2CCCCC2)cc1)c1c(-c2ccc(O)cc2)sc2cc(O)ccc12` [Raloxifene HCl]: the cell viability was 98.9%.

With `CCn1cc(C(=O)O)c(=O)c2cc(F)c(N3CCNCC3)cc21` [Norfloxacin], the cell viability came to 96%.

As to `CCOC(=O)C1=C(C)NC(C)=C(C(=O)OC)C1c1cccc([N+](=O)[O-])c1` (configuration not stated) [Nitrendipine], the cell viability amounted to 95.2%.

For the compound `C[C@]12CC[C@@H]3c4ccc(O)cc4CC[C@H]3[C@@H]1C[C@@H](O)[C@@H]2O` [Estriol], the cell viability came to 100%.

With `CCc1cccc2c3c([nH]c12)C(CC)(CC(=O)O)OCC3` (configuration not stated) [Etodolac], the cell viability was 83.5%.

With `CCC[C@H](NC(=O)[C@@H]1[C@H]2CCC[C@H]2CN1C(=O)[C@@H](NC(=O)[C@@H](NC(=O)c1cnccn1)C1CCCCC1)C(C)(C)C)C(=O)C(=O)NC1CC1` [Telaprevir (VX-950)], the cell viability was 82%.

On to `COc1cc2c(cc1OC)[C@H]1C[C@@H](OC(=O)[C@@H](N)C(C)C)[C@H](CC(C)C)CN1CC2` [Valbenazine tosylate], for which the cell viability amounted to 87.3%.

`CC1=C(CC(=O)O)c2cc(F)ccc2/C1=C\c1ccc([S+](C)[O-])cc1` (configuration not stated) [Sulindac]: the cell viability was 93.4%.

`C[C@H](NC(=O)[C@@H](Cc1ccc2ccccc2c1)NC(=O)[C@@H](C)N)C(=O)N[C@@H](Cc1c[nH]c2ccccc12)C(=O)N[C@H](Cc1ccccc1)C(=O)N[C@@H](CCCCN)C(N)=O`: the cell viability was found to be 98.5%.

`CCOC(=O)[C@H](CCc1ccccc1)N[C@@H](C)C(=O)N1CCC[C@H]1C(=O)O` [Enalapril Maleate]: the cell viability is 99.6%.

As to `Cn1nnnc1SCC1=C(C(=O)O)N2C(=O)[C@@H](NC(=O)[C@H](OC=O)c3ccccc3)[C@H]2SC1` [Cefamandole nafate], the cell viability came to 91.8%.

For `CNC(=O)[C@H](Cc1ccccc1)NC(=O)[C@H](CC(C)C)[C@H](CSc1cccs1)C(=O)NO` [Batimastat (BB-94)], the cell viability was found to be 91.7%.

In the case of `Nc1cccc2c1CN(C1CCC(=O)NC1=O)C2=O` (configuration not stated) [Lenalidomide (CC-5013)], the cell viability was 99%.

As for `O=S(=O)(O)CCCS(=O)(=O)O` [Eprodisate disodium], the cell viability was determined as 97.1%.

In the case of `COc1ccc2[nH]c([S+]([O-])Cc3ncc(C)c(OC)c3C)nc2c1` (configuration not stated) [Omeprazole], the cell viability was found to be 90.1%.

On to `O=C1/C(=C2\Nc3ccccc3C2=O)Nc2ccccc21` [Indigo], for which the cell viability was 98.2%.

As for `Cc1ccccc1N1C(=O)c2cc(S(N)(=O)=O)c(Cl)cc2NC1C` (configuration not stated) [Metolazone], the cell viability was 92.2%.

Consider `Cc1cc(-n2c(=O)[nH]c(=O)n(C)c2=O)ccc1Oc1ccc(SC(F)(F)F)cc1` [Toltrazuril], for which the cell viability was 87.2%.

As for `[I-].[K+]` [Potassium Iodide], the cell viability is 82.5%.

On to `O=C(NS(=O)(=O)c1ccc(Br)s1)c1ccc(Cl)cc1Cl` [Tasisulam], for which the cell viability turned out to be 68.5%.

For `C=CC1=C(C(=O)O)N2C(=O)[C@@H](NC(=O)/C(=N\OCC(=O)O)c3csc(N)n3)[C@H]2SC1` [Cefixime], the cell viability worked out at 84.1%.

Regarding `OCCOCCN1CCN(C(c2ccccc2)c2ccc(Cl)cc2)CC1` (configuration not stated) [Hydroxyzine 2HCl], the cell viability amounted to 73%.

In the case of `OCCOCCN1CCN(C(c2ccccc2)c2ccc(Cl)cc2)CC1` (configuration not stated) [Hydroxyzine pamoate], the cell viability came out at 56.3%.

On to `CCOC(=O)c1c(C)n(C)c2ccc(O)cc12` [Mecarbinate], for which the cell viability stood at 91.2%.

Consider `COc1ccc(C[C@@H]2c3cc(OC)c(OC)cc3CC[N@+]2(C)CCC(=O)OCCCCCOC(=O)CC[N@@+]2(C)CCc3cc(OC)c(OC)cc3[C@H]2Cc2ccc(OC)c(OC)c2)cc1OC` [Cisatracurium Besylate], for which the cell viability was found to be 87.8%.

Turning to `C=C[C@@H]1C[C@]1(NC(=O)[C@@H]1C[C@@H](Oc2ncc(OC)c3ccc(Cl)cc23)CN1C(=O)[C@@H](NC(=O)OC(C)(C)C)C(C)(C)C)C(=O)NS(=O)(=O)C1CC1` [Asunaprevir], the cell viability was found to be 97.3%.

For `N#Cc1ccc(Oc2ccc3c(c2)COB3O)cc1` [Crisaborole (AN2728)], the cell viability is 105%.

As to `CC(N)C12CC3CC(CC(C3)C1)C2` (configuration not stated) [Rimantadine], the cell viability is 96.8%.

Turning to `CC(N)C12CC3CC(CC(C3)C1)C2` (configuration not stated) [Rimantadine Hydrochloride], the cell viability was found to be 89.9%.

Take `CN(CCOc1ccc(CC2SC(=O)NC2=O)cc1)c1ccccn1` (configuration not stated) [Rosiglitazone maleate]: the cell viability was found to be 86.5%.

Turning to `CN(CCOc1ccc(CC2SC(=O)NC2=O)cc1)c1ccccn1` (configuration not stated) [Rosiglitazone HCl], the cell viability was 85.2%.

For the compound `CN(CCOc1ccc(CC2SC(=O)NC2=O)cc1)c1ccccn1` (configuration not stated) [Rosiglitazone], the cell viability stood at 85.7%.

Take `CCCc1nc(C(C)(C)O)c(C(=O)O)n1Cc1ccc(-c2ccccc2-c2nnn[nH]2)cc1` [Olmesartan]: the cell viability was 92.7%.

Consider `O=C(OCc1ccccc1)c1ccccc1` [Benzyl benzoate], for which the cell viability was 95.6%.

As to `OC(CCN1CCCCC1)(c1ccccc1)C1CCCCC1` (configuration not stated) [Trihexyphenidyl hydrochloride], the cell viability amounted to 83.7%.

With `N=C(N)N/N=C/c1c(Cl)cccc1Cl` [Guanabenz Acetate], the cell viability came to 92.8%.

As for `Cc1ccc2c(Cl)cc(Cl)c(O)c2n1` [Chlorquinaldol], the cell viability turned out to be 78.6%.

Regarding `C[C@H](Oc1cc(-c2cnn(C3CCNCC3)c2)cnc1N)c1c(Cl)ccc(F)c1Cl` [(S)-crizotinib], the cell viability was 72.9%.

`CCCCCCCCCC(=O)N[C@H]1[C@H](Oc2c3cc4cc2Oc2ccc(cc2Cl)[C@@H](O[C@@H]2O[C@H](CO)[C@@H](O)[C@H](O)[C@H]2NC(C)=O)[C@@H]2NC(=O)[C@H](NC(=O)[C@@H]4NC(=O)[C@H]4NC(=O)[C@@H](Cc5ccc(c(Cl)c5)O3)NC(=O)[C@H](N)c3ccc(O)c(c3)Oc3cc(O)cc4c3)c3ccc(O)c(c3)-c3c(OC4O[C@H](CO)[C@@H](O)[C@H](O)[C@@H]4O)cc(O)cc3[C@@H](C(=O)O)NC2=O)O[C@H](CO)[C@@H](O)[C@@H]1O` (some centres not stated) [Teicoplanin]: the cell viability was 93.5%.

By cell viability is commonly meant a read-out of living cells in per cent, often relative to untreated cells.
